{"source": "PubChem BioAssay AID1259308 (NCATS, 2017)", "purpose": "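Knock-downs that increase output of a recombinant reporter protein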 (primary screen)", "system": "human HEK293 embryonic kidney cells stably expressing firefly luciferase (HEK-CMV-Luc2-Hygro)", "knock-down reagent": "single siRNA against human genes, 0.8 pmol siRNA per well", "duration": "72 h", "detection": "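Reporter luminescence and viable-cell signal on separate replicate plates, given as percent of non-targeting control and median/MAD z-scores, plus per-cell luciferase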", "scale": "total luciferase, z-score: higher = more reporter protein produced", "rule for the call": "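An siRNA counts as active if its total luciferase robust z-score exceeds 3; genes with two or more such siRNAs out of three were retested with fresh siRNAs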", "calls": "active = raised luciferase; inactive = no rise", "note": "This is a random part of about 59,000 reagents. Of all reagents, about 1,510 (2.6%) got an active call. 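Calls use total luciferase alone and ignore viability, so some active siRNAs may act by altering cell number.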 The numbers tell different reagents against one gene apart. Not all columns of the deposit are shown. No sequences are given here."}
{"Gene": "LYZL4 (GeneID 131375)", "reagent": 1, "total luciferase, z-score": -1.15, "Outcome": "inactive"}
{"Gene": "LYZL4 (GeneID 131375)", "reagent": 2, "total luciferase, z-score": 0.521, "Outcome": "inactive"}
{"Gene": "LYZL4 (GeneID 131375)", "reagent": 3, "total luciferase, z-score": 2.12, "Outcome": "inactive"}
{"Gene": "SLC7A1 (GeneID 6541)", "reagent": 1, "total luciferase, z-score": 3.31, "Outcome": "active"}
{"Gene": "SLC7A1 (GeneID 6541)", "reagent": 2, "total luciferase, z-score": -0.834, "Outcome": "inactive"}
{"Gene": "SLC7A1 (GeneID 6541)", "reagent": 3, "total luciferase, z-score": -0.955, "Outcome": "inactive"}
{"Gene": "FRMD4A (GeneID 55691)", "reagent": 1, "total luciferase, z-score": 0.0423, "Outcome": "inactive"}
{"Gene": "FRMD4A (GeneID 55691)", "reagent": 2, "total luciferase, z-score": -0.168, "Outcome": "inactive"}
{"Gene": "FRMD4A (GeneID 55691)", "reagent": 3, "total luciferase, z-score": 0.152, "Outcome": "inactive"}
{"Gene": "AGO1 (GeneID 26523)", "reagent": 1, "total luciferase, z-score": -1.18, "Outcome": "inactive"}
{"Gene": "AGO1 (GeneID 26523)", "reagent": 2, "total luciferase, z-score": 0.853, "Outcome": "inactive"}
{"Gene": "AGO1 (GeneID 26523)", "reagent": 3, "total luciferase, z-score": -0.833, "Outcome": "inactive"}
{"Gene": "STAG3L1 (GeneID 54441)", "reagent": 1, "total luciferase, z-score": 1.22, "Outcome": "inactive"}
{"Gene": "STAG3L1 (GeneID 54441)", "reagent": 2, "total luciferase, z-score": -2, "Outcome": "inactive"}
{"Gene": "STAG3L1 (GeneID 54441)", "reagent": 3, "total luciferase, z-score": 1.13, "Outcome": "inactive"}
{"Gene": "MLH3 (GeneID 27030)", "reagent": 1, "total luciferase, z-score": -1.23, "Outcome": "inactive"}
{"Gene": "MLH3 (GeneID 27030)", "reagent": 2, "total luciferase, z-score": -0.212, "Outcome": "inactive"}
{"Gene": "MLH3 (GeneID 27030)", "reagent": 3, "total luciferase, z-score": -0.726, "Outcome": "inactive"}

No new results follow: 4 of the entries above.
{"Gene": "SLC7A1 (GeneID 6541)", "reagent": 1, "total luciferase, z-score": 3.31, "Outcome": "active"}
{"Gene": "SLC7A1 (GeneID 6541)", "reagent": 2, "total luciferase, z-score": -0.834, "Outcome": "inactive"}
{"Gene": "SLC7A1 (GeneID 6541)", "reagent": 3, "total luciferase, z-score": -0.955, "Outcome": "inactive"}
{"Gene": "FRMD4A (GeneID 55691)", "reagent": 1, "total luciferase, z-score": 0.0423, "Outcome": "inactive"}

The results go on:
{"Gene": "SCN1A (GeneID 6323)", "reagent": 1, "total luciferase, z-score": -0.161, "Outcome": "inactive"}
{"Gene": "SCN1A (GeneID 6323)", "reagent": 2, "total luciferase, z-score": 0.964, "Outcome": "inactive"}
{"Gene": "SCN1A (GeneID 6323)", "reagent": 3, "total luciferase, z-score": 1.34, "Outcome": "inactive"}
{"Gene": "FAM181A (GeneID 90050)", "reagent": 1, "total luciferase, z-score": 0.457, "Outcome": "inactive"}
{"Gene": "FAM181A (GeneID 90050)", "reagent": 2, "total luciferase, z-score": 0.173, "Outcome": "inactive"}
{"Gene": "FAM181A (GeneID 90050)", "reagent": 3, "total luciferase, z-score": -0.179, "Outcome": "inactive"}
{"Gene": "PREX2 (GeneID 80243)", "reagent": 1, "total luciferase, z-score": 0.602, "Outcome": "inactive"}
{"Gene": "PREX2 (GeneID 80243)", "reagent": 2, "total luciferase, z-score": 1.79, "Outcome": "inactive"}
{"Gene": "PREX2 (GeneID 80243)", "reagent": 3, "total luciferase, z-score": -0.777, "Outcome": "inactive"}
{"Gene": "NFE2L2 (GeneID 4780)", "reagent": 1, "total luciferase, z-score": 0.508, "Outcome": "inactive"}
{"Gene": "NFE2L2 (GeneID 4780)", "reagent": 2, "total luciferase, z-score": -0.47, "Outcome": "inactive"}
{"Gene": "NFE2L2 (GeneID 4780)", "reagent": 3, "total luciferase, z-score": -0.906, "Outcome": "inactive"}
{"Gene": "SPOUT1 (GeneID 51490)", "reagent": 1, "total luciferase, z-score": 0.00112, "Outcome": "inactive"}
{"Gene": "SPOUT1 (GeneID 51490)", "reagent": 2, "total luciferase, z-score": -2.11, "Outcome": "inactive"}
{"Gene": "SPOUT1 (GeneID 51490)", "reagent": 3, "total luciferase, z-score": -0.144, "Outcome": "inactive"}
